Drawing on publication PMC7506551, this text covers binding for four substances.

Chains of the proteins cited; added tags and fusions are not shown. Lines headed by an entry give the natural chain unless they say otherwise; changes in a name come on top. A line that says so, or that is headed by a name, gives the form on record, which may keep a tag or linker.
UniProt Q12824: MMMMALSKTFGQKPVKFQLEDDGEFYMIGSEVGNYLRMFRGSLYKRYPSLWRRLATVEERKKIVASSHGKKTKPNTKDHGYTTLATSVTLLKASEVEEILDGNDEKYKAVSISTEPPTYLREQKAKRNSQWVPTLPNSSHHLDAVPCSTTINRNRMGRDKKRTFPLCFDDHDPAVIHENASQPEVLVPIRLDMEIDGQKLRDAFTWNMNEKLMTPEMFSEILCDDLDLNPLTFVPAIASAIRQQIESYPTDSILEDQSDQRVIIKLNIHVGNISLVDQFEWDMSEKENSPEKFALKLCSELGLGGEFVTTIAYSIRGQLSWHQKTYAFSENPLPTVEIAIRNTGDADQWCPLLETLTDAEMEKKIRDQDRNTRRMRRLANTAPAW
SMARCB1 with the in-frame deletion 185-193Δ (Q12824, form named): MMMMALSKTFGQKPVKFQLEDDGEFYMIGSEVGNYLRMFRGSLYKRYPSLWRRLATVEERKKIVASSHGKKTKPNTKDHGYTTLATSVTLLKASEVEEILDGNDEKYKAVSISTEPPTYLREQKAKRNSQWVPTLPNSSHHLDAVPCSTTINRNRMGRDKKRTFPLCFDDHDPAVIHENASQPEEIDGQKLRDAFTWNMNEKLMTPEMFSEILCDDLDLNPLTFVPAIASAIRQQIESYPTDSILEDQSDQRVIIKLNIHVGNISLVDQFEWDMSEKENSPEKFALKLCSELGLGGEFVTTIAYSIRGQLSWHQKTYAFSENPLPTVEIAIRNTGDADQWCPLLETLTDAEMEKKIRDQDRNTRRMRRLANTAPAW
UniProt Q92922: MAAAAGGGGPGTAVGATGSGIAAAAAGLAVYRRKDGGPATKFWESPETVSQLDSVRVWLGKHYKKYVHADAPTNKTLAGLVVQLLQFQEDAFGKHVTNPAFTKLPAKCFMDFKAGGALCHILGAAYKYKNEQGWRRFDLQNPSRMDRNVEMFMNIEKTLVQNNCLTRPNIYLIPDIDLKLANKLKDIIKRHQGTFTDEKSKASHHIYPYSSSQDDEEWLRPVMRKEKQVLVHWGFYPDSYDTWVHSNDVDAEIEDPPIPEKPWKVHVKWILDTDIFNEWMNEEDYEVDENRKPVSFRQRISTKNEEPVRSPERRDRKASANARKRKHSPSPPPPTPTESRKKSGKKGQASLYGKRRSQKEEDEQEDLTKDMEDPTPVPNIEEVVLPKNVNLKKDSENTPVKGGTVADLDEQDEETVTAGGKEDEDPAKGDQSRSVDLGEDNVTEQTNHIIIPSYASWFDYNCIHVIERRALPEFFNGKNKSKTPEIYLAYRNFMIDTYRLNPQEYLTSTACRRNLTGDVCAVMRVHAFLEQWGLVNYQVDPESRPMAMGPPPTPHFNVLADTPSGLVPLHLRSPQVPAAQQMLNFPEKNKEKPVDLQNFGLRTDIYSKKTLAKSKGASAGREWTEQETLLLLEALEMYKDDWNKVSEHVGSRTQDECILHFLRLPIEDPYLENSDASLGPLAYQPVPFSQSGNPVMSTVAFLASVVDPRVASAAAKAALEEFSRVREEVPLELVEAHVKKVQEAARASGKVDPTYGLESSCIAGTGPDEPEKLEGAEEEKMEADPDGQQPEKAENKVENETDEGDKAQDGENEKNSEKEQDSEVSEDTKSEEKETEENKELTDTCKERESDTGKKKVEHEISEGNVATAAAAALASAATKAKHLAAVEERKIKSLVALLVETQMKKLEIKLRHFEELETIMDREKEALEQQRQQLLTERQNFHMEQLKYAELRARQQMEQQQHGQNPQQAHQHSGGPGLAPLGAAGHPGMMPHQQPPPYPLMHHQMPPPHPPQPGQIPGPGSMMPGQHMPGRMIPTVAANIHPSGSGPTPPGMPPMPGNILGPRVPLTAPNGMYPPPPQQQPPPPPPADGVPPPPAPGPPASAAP
UniProt P51532: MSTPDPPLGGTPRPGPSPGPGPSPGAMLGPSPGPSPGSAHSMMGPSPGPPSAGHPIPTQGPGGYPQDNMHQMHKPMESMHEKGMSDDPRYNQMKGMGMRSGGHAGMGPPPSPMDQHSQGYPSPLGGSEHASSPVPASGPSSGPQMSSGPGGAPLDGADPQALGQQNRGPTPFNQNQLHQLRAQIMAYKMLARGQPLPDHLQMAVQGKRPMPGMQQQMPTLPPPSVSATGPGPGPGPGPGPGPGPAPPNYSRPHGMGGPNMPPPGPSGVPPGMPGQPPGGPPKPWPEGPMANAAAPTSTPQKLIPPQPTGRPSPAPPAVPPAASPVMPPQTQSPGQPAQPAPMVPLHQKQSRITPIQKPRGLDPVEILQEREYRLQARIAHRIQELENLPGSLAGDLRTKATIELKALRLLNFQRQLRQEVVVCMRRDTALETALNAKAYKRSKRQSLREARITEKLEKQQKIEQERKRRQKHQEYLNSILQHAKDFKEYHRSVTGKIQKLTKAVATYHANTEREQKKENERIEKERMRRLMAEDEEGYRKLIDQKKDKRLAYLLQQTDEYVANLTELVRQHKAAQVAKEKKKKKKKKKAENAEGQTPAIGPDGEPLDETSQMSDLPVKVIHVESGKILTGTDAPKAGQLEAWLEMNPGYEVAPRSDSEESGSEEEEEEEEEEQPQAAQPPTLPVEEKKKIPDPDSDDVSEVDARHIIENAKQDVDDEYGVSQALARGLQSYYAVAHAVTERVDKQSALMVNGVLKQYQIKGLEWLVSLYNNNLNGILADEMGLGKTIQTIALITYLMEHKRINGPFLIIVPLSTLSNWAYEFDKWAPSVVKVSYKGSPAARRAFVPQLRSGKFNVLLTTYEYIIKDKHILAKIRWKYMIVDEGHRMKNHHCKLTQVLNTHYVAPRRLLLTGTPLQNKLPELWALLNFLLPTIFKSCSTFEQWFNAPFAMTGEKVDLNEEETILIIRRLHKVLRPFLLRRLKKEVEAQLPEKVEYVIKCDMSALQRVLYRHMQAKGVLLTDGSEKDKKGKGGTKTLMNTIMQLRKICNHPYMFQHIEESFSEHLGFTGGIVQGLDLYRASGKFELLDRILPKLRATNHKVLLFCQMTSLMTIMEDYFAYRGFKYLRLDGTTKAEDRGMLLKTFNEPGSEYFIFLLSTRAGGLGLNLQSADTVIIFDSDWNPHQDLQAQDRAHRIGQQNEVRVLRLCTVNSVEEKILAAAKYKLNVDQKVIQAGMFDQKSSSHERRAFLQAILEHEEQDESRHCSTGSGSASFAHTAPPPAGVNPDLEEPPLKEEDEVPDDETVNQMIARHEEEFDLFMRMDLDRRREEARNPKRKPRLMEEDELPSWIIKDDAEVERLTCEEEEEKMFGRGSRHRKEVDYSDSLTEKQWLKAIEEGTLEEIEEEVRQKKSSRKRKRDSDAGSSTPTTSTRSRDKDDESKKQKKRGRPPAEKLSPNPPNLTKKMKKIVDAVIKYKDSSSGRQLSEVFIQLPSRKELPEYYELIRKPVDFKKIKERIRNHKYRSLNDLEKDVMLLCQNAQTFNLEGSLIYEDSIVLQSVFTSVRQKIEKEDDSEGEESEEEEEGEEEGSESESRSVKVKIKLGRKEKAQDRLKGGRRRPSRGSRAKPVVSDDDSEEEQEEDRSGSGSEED

No constants are given. Whether binding was seen depends on the method and setting. In cells and extracts the contact can be indirect. Some results given as binding are weak or reduced against the parent protein; the word gives no strength.

For assay [1], the target named is GFP-SMARCB1 (human) (UniProt Q12824). The assay is described as follows: co-IP; GFP-SMARCB1 (wild type or mutant) with one Myc-tagged partner, no other subunit added.
Assay [2] concerns the target GFP-SMARCB1(R341L) (human) (UniProt Q12824). Briefly: co-IP; GFP-SMARCB1 (wild type or mutant) with Myc-SMARCA4 and added SMARCC2 and/or SMARCC1 (Fig. 1e, Supplementary Fig. S8a-b); 3% of the Myc fusion proteins shown as input; also with SMARCC2(R487C) and/or SMARCC1(R512Q) in place of the wild types.
For assay [3], the target named is GFP-SMARCB1(D202A, E210A) (human) (UniProt Q12824). The assay is described as above.
The target of assay [4] is SMARCB1 with the in-frame deletion 185-193Δ (human) (UniProt Q12824). The assay is described as above.
Assay [5] concerns the target GFP-SMARCB1 (human) (UniProt Q12824). The description is as above.
Assay [6] addresses GFP-SMARCB1(D202A, E210A, R341L) (human) (UniProt Q12824). The assay is described as above.

In the case of “SMARCC1 R499C (from UniProt Q92922 1-1105)”, the binding entry in the assay with GFP-SMARCB1 (human) [1] is reported as “binds”.
In the case of “Myc-SMARCA4 (from UniProt P51532 1-1647)”, the binding result in assay [2] is recorded as “binds”; in assay [3], “binds”; in assay [4], “binds”; with GFP-SMARCB1 (human) [5] it was “binds”; in assay [6], “binds”; with GFP-SMARCB1 (human) [1], “binds weakly”.
As to “SMARCC1 R499H (from UniProt Q92922 1-1105)”, the binding entry in the assay with GFP-SMARCB1 (human) [1] is “binds”.
On to “Myc-SMARCC1 (from UniProt Q92922 1-1105)”, for which the binding result (in assay [2]; in assay [3]; in assay [4]; with GFP-SMARCB1 (human) [5]; in assay [6]) was “binds” throughout.
